Values from PubChem BioAssay AID1259405 (NCATS, 2018).
This is an unselected part of about 50,000 reagents. About 4,000 of all reagents (8%) were called active. 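Mouse siRNA library applied to hamster cells; one well for each siRNA.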 A number with no mark means an inactive call. The numbers tell different reagents against one gene apart.

Purpose: 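Mouse-designed siRNAs used to find CHO productivity engineering targets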 (primary screen)
System: Chinese hamster CHO-K1 ovary cells with stable secreted eGFP expression
Reagents: single siRNA against mouse genes, 0.8 pmol siRNA per well (2 µl of 400 nM stock)
Time to read-out: 3 days
Measured: 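Percent of the per-plate non-targeting control median for intracellular GFP per well by laser scanning cytometry and for cell viability by ATP luminescence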
Scale: GFP, % of control: higher = more GFP per well, higher productivity; viability (ATP), % of control: higher = more viable cells (more ATP)
Rule for the call: 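a knock-down is called active if GFP reaches 120% or more of non-targeting control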

gene	reagent no.	GFP, % of control	viability (ATP), % of control
Or10p1	1	90.1	91.8
Or10p1	2	82.9	102
Or10p1	3	53.8	50.4
Hibch	1	129 (active)	138
Hibch	2	60.1	77.4
Hibch	3	93.2	61.6
Hspa1a	1	70.1	76.3
Hspa1a	2	79.9	78.3
Hspa1a	3	96.7	138
Or6d12	1	101	74.7
Or6d12	2	83.9	89.7
Or6d12	3	81	64.6
Blzf1	1	106	102
Blzf1	2	81.3	87
Blzf1	3	103	131

In a second layout: entries from further up.
gene,reagent no.,"GFP, % of control","viability (ATP), % of control"
Hspa1a,1,70.1,76.3
Hspa1a,2,79.9,78.3

The listing continues.
gene	reagent no.	GFP, % of control	viability (ATP), % of control
Sir2l1	1	45.3	49.4
Sir2l1	2	92.8	94.3
Sir2l1	3	102	137
Mink1	1	41.7	31.9
Mink1	2	45.6	46.9
Mink1	3	77.7	87.1
Alox12e	1	77.6	41
Alox12e	2	45.7	46.2
Alox12e	3	78.5	85
Grb2	1	117	96.6
Grb2	2	75.8	86.1
Grb2	3	75.3	71.9
Msl3	1	96.1	69.1
Msl3	2	71	73.1
Msl3	3	51.4	56.8
Or5d38	1	75.7	60
Or5d38	2	86.7	80.3
Or5d38	3	216 (active)	66.3
Mymk	1	90.9	84.9
Mymk	2	109	80.4
Mymk	3	180 (active)	98.8
Mymk	4	84.7	83.9
Mymk	5	73.2	66.2
Mymk	6	91.3	99.6
